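Primary screen of methionyl-tRNA synthetase; the read-out is not stated. Target: Methionyl-tRNA synthetase (putative), Leishmania donovani (UniProt E9BF75). The test concentration is not given. Values are per cent inhibition. Of about 68,000 compounds tested this way, about 24 (0.035%) reached 50% or more in at least one test.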

By UniProt entry, the sequences of proteins in these tests, tags left out.
UniProt E9BF75, entry or part of it: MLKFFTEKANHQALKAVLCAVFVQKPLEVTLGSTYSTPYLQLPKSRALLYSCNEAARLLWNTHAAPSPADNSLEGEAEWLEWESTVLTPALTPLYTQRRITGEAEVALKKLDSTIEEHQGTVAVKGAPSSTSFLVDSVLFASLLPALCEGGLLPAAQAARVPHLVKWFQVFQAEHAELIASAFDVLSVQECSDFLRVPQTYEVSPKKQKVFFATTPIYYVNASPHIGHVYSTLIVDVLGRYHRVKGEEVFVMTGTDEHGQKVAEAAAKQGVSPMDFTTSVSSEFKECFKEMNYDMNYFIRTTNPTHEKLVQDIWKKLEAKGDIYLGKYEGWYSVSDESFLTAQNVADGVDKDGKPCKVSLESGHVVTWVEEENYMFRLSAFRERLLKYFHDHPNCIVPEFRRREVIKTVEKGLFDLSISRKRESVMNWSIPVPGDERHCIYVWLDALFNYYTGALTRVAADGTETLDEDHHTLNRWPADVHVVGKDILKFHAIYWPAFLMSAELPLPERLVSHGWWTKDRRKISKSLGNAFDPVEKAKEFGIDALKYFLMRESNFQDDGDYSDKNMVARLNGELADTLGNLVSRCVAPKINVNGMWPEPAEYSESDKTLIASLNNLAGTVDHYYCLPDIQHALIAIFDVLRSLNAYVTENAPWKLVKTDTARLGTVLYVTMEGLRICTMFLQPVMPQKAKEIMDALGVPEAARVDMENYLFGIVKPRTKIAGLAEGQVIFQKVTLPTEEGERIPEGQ

All values are in %.
The controls that fix the scale are not given in the record; negative values are as filed.
The compounds are a random part of those screened.

{"structure": "Cc1ncc(-c2ccncc2)c(C2CCN(C(=O)c3ccco3)CC2)n1", "inhibition": 9.627}
{"structure": "CCN(Cc1ccc2c(c1)OCO2)C(=O)CCc1c(C)nc(C)[nH]c1=O", "inhibition": 18.37}
{"structure": "O=C1[C@@H]2CCN(Cc3ccoc3)C[C@@H]2OCCN1c1cccnc1", "inhibition": 9.206}
{"structure": "Nc1ccnc(N2CCCC(CCc3ccccc3)(C(=O)O)C2)n1", "stereo": "configuration not stated", "inhibition": 2.29}
{"structure": "CN(CCOCC(F)(F)F)CC1CCN(CCO)CC1", "inhibition": 11.56}
{"structure": "N#Cc1cn[nH]c1NCc1cc(Br)ccc1O", "inhibition": 20.12}
{"structure": "Cc1ccccc1C(O)CNC(=O)Cc1ccc(F)cc1", "stereo": "configuration not stated", "inhibition": 3.866}
{"structure": "CCSCCC(=O)Nc1ncn(CC(=O)NCc2ccccc2)n1", "inhibition": 25.37}
{"structure": "Cc1cc(C)n(C2CN(c3ncnc4c3CCC4)C2)n1", "inhibition": 18.77}
{"structure": "CC1=C(CCN2CCCC(O)C2)C(C)(C)CCC1", "stereo": "configuration not stated", "inhibition": 2.721}
{"structure": "Cc1nc(NC(=O)N2CCCC(N(C)C)C2)nn1C", "stereo": "configuration not stated", "inhibition": 11.14}
{"structure": "CCn1c(SCC(N)=O)nnc1C(C)NC(=O)c1ccc(Cl)cc1", "stereo": "configuration not stated", "inhibition": -6.784}
{"structure": "O=C(NCCCn1cccn1)C1CCC(=O)N(CC2CCCCC2)C1", "stereo": "configuration not stated", "inhibition": 8.696}
{"structure": "O=C(NCC(O)c1cccc(O)c1)C1CCN(C2CCCCC2)CC1", "stereo": "configuration not stated", "inhibition": 16.62}
{"structure": "CCc1csc(C2CCCN(C(=O)c3cc(Cl)c[nH]3)C2)n1", "stereo": "configuration not stated", "inhibition": 18.1}
{"structure": "CN(C)S(=O)(=O)N1CC[C@]2(O)CCN(Cc3cccc(C#N)c3)C[C@@H]2C1", "inhibition": 0}
{"structure": "CCc1nc(CCNC(=O)Nc2cc(C(N)=O)ccc2OC)cs1", "inhibition": 6.897}
{"structure": "COc1ccc(OC)c(-n2c(COC(C)C)n[nH]c2=O)c1", "inhibition": 6.62}
{"structure": "CC(=O)NC(C)C(=O)Nc1ccc(OCc2cccc(F)c2)cc1C", "stereo": "configuration not stated", "inhibition": 10.14}
{"structure": "NC(=O)CC1CCN(C(=O)NCc2cccc(-n3cccn3)c2)CC1", "inhibition": 8.355}
{"structure": "Fc1cccc(CN2CCC(c3cc4ncccc4cn3)CC2)c1F", "inhibition": 27.82}
{"structure": "CCCc1nc(N2Cc3cnn(Cc4ccc(F)cc4)c3C2)no1", "inhibition": 12.68}
{"structure": "Cc1ccc(NC(=O)C2CCc3ccccc3N2)cc1", "stereo": "configuration not stated", "inhibition": 0.8065}
{"structure": "Cc1noc([C@H]2C[C@@H]3CCN(CC4CCOCC4)C[C@H]3O2)n1", "inhibition": 2.055}
{"structure": "Nc1cc2c(nn1)CCN(C(=O)Cc1ccc3c(c1)CCO3)C2", "inhibition": -0.838}
{"structure": "OC(CN1CCOCC1)c1ccc(Br)cc1", "stereo": "configuration not stated", "inhibition": -20.99}
{"structure": "Cc1ccc(N2CC(c3nccc(C)n3)C2)nn1", "inhibition": 4.037}
{"structure": "Oc1nnc(-c2cccs2)c2sc(N3CCCCC3)nc12", "inhibition": 19.25}
{"structure": "c1cnnc(N2CCCC(NCc3cccc4c3OCCO4)C2)c1", "stereo": "configuration not stated", "inhibition": 10.74}
{"structure": "OCc1cn(CC2CCN(C3CCSC3)CC2)nn1", "stereo": "configuration not stated", "inhibition": 1.961}
{"structure": "COc1ccc(NC2CCN(C3CC3)C2=O)cn1", "stereo": "configuration not stated", "inhibition": 13.49}
{"structure": "CCOCC(=O)N1CCn2cc(CN(C)Cc3ccco3)nc2C1", "inhibition": 13.48}
{"structure": "Cc1cnc(N2CCC(OCCN3CCCCC3)C2)nc1C", "stereo": "configuration not stated", "inhibition": 12.81}
{"structure": "CC(C)Cc1nc(CO)n(-c2ccc3c(c2)OCCO3)n1", "inhibition": 5.076}
{"structure": "CN(C)C(=O)[C@@H]1C[C@H]2OCC[C@H]2N(CCOc2ccc(Cl)cc2)C1", "inhibition": 7.904}
{"structure": "CC1CCCN(C(=O)c2occc2COc2cccc(C#N)c2)C1", "stereo": "configuration not stated", "inhibition": 19.6}
{"structure": "Cc1ccc(CN2C[C@H]3C[C@H](C(=O)NCc4cccnc4)[C@@H](C2)O3)cc1", "inhibition": 3.623}
{"structure": "CC(C)CNC(=O)CSc1nnc(OC(C)C)s1", "inhibition": 11.08}
{"structure": "Nc1ncc(CN2CCC(CCC(=O)NC3CC3)CC2)cn1", "inhibition": 11.6}
{"structure": "Cc1ccc(N(C)[C@@H]2CC[C@@H]3CN(C(=O)Cc4cccs4)C[C@@H]32)nn1", "inhibition": 19.62}

Some entries from above, unchanged:

structure,inhibition
CN(CCOCC(F)(F)F)CC1CCN(CCO)CC1,11.56
Nc1ccnc(N2CCCC(CCc3ccccc3)(C(=O)O)C2)n1 (configuration not stated),2.29

Data taken from ChEMBL document CHEMBL3988442, “University of Dundee, Small-Polar-MMV Screening Library” (2021).